Measurements: paper PMC8039031
No constants are given. Whether binding was seen depends on the method and setting. For part of these data: A result given as binding can be weak or reduced; the word gives no strength. Sequences can lack the tags named with a protein. For part of these data: In cells and extracts the contact can be indirect.

Sequences of proteins named here, by UniProt entry; tags and fusion partners are left off. A change or cut given only in a name is not applied to a line headed by its entry.
UniProt P40763: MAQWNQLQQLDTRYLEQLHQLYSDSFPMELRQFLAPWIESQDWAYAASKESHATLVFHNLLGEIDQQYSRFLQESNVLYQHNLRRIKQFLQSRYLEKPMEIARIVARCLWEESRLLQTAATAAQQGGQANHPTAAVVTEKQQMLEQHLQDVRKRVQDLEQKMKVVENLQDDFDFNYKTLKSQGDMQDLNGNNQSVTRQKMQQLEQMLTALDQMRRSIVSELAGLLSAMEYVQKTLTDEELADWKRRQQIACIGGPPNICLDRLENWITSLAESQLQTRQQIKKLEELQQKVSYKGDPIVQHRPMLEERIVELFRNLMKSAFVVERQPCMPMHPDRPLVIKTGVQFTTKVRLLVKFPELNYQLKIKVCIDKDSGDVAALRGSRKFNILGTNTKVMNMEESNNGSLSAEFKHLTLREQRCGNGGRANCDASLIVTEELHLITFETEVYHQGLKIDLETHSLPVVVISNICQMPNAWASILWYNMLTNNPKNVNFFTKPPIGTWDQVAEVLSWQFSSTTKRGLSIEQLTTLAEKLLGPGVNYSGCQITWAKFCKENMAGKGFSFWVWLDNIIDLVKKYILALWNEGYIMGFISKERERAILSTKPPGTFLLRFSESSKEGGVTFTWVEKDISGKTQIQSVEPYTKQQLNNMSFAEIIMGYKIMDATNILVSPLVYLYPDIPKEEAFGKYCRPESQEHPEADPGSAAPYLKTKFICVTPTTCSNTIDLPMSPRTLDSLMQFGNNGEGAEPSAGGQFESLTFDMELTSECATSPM

Experiments:
[1] = molecular target: T1, Myc-CREPT (cell cycle-related and elevated-expression protein in tumours, RPRD1B) (UniProt Q9NQG5); assay: co-IP; exogenously expressed proteins, cells treated with LIF; HEK293T (Fig. 4a); cells of Fig. 4c not stated
T1 sequence: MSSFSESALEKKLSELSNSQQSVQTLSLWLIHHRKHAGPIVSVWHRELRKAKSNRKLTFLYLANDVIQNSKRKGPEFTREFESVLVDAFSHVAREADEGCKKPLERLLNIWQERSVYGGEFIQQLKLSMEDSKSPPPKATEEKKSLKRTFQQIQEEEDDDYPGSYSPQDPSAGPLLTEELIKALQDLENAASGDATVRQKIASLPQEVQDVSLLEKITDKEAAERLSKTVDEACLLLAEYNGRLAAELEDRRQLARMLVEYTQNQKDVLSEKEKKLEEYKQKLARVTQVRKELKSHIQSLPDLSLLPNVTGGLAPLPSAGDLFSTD

DB-LD domain of STAT3 = assay: pull-down; GST pull-down using purified proteins, CREPT and deletion mutants of STAT3 (Fig. 4i); both purified
SH2-CT domain of STAT3 = assay: as above

STAT3C/Y705F (from UniProt P40763) was tested, and the binding [1] was “no binding”.

B1: CREPT (purified protein of the GST pull-down of Fig. 4i) (protein, UniProt Q9NQG5 1-326)
chain: T1 sequence
B1 was tested, and the binding (DB-LD domain of STAT3) was “binds” and the binding (SH2-CT domain of STAT3) was “binds”.
